Experimental data taken from paper PMC3374257.
These are yes or no findings as the source states them, for the method shown. Binding seen in cells or lysates may run through a third protein. Some binding calls cover weakened binding; strength is not graded here.

Protein sequences, listed by entry. Tags and fused reporters are not part of them.
UniProt Q8BKJ9: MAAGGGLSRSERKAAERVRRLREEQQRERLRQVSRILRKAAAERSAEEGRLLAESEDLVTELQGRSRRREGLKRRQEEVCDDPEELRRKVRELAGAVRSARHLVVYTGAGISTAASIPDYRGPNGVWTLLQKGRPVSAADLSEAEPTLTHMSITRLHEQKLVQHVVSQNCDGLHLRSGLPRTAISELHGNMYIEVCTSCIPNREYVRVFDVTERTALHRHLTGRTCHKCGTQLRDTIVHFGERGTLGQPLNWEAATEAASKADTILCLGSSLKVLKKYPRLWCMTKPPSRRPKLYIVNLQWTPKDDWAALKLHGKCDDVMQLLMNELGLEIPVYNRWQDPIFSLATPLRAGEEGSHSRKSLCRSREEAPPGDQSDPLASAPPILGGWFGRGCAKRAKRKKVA

Columns and labels:
[1] = biological target: T1, Sirt1 (UniProt Q923E4); assay: co-IP; immunoprecipitation of endogenous proteins
T1 sequence: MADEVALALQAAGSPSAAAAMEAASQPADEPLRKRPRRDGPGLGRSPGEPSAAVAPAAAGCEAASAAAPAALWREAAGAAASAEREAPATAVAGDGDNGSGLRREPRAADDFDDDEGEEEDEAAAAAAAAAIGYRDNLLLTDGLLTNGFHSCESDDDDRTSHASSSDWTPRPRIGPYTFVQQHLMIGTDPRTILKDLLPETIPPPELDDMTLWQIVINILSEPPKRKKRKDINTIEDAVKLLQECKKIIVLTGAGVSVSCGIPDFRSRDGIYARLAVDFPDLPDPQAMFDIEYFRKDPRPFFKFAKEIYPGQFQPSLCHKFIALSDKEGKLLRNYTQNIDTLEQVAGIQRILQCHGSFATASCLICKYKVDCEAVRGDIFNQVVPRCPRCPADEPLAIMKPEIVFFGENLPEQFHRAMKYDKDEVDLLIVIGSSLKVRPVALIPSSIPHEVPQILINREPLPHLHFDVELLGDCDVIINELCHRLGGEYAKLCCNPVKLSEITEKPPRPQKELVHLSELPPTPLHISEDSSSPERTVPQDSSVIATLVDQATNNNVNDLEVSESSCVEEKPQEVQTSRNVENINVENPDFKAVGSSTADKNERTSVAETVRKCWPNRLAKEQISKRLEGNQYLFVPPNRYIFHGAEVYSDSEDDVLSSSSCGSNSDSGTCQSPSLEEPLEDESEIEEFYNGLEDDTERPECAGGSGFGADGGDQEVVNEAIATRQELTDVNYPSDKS

[2] = biological target: T1, Sirt1; assay: pull-down; GST pull-down assays; which partner carried GST is not stated

## Sirt7 (from UniProt Q8BKJ9 1-402)
[1]
  binding: binds
[2]
  binding: binds
